From the supplement of paper PMC5355238 come the findings set out here.

SMILES strings stand for the structures. Structures can show the parent of a compound that is named as a salt. ± gives the standard deviation of the averaged measurements. Some of the results follow. Many values rest on one well or one pass, so single values are uncertain.

The experiment concerns Reh. As to the kind of experiment: S-phase gammaH2AX median, Z-score vs plate median (drug alone); higher = more S-phase DNA damage. The following applies: MK1775 concentration 0 nM; 10 µM; 4 h.
As for `COc1ccc(C2=N[C@@H](c3ccc(Cl)cc3)[C@@H](c3ccc(Cl)cc3)N2C(=O)N2CCNC(=O)C2)c(OC(C)C)c1` [Nutlin-3], the “S-phase gammaH2AX median (Z-score)” value stood at 0.0205. `c1ccc(C2CN3CCSC3=N2)cc1` (single isomer, unassigned; (-)) [(-)-Tetramisole hydrochloride]: the “S-phase gammaH2AX median (Z-score)” value worked out at 0.147. In the case of `CN/C(=N\CCSCc1nc[nH]c1C)NC#N` [Cimetidine] it was -0.0563; in that of `CC1CCN=C(N)S1` (configuration not stated) [(?)-AMT hydrochloride], 0.122. In the case of `N#C/C(=C\c1ccc(O)c(O)c1)C(=O)NCCCc1ccccc1` [Tyrphostin AG 555] it was 0.04; in that of `NC(=O)c1ccc(I)c([N+](=O)[O-])c1` [Iniparib (BSI-201)], 0.168. In the case of `O=C(O)c1cc2cc(Cc3cccnc3)ccc2o1` [Furegrelate sodium], the “S-phase gammaH2AX median (Z-score)” value is -0.0661. In the case of `CC(C)(C)c1ccc(S(=O)(=O)/C=C/C#N)cc1` it was 1.52 ± 2.3; in that of `O=Nc1ccc2oc(=O)ccc2c1` [6-Nitroso-1,2-benzopyrone], -0.0307. In the case of `CC(=O)c1c(C)c2cnc(Nc3ccc(N4CCNCC4)cn3)nc2n(C2CCCC2)c1=O` it was -0.0437; in that of `O=C(O)c1cc(=O)c2c(Cl)cc(Cl)cc2[nH]1` [5,7-Dichlorokynurenic acid], 0.0252.

For `C[C@@H](O[C@H]1OCCN(Cc2n[nH]c(=O)[nH]2)[C@H]1c1ccc(F)cc1)c1cc(C(F)(F)F)cc(C(F)(F)F)c1` [Aprepitant (MK-0869)], the “S-phase gammaH2AX median (Z-score)” value worked out at 0.0259. In the case of `Cc1cn(-c2cc(NC(=O)c3ccc(C)c(Nc4nccc(-c5cccnc5)n4)c3)cc(C(F)(F)F)c2)cn1` [Nilotinib (AMN-107)] it was -0.0731. To `NC(=O)c1ccc(-c2nc(-c3ccccn3)c(-c3ccc4c(c3)OCO4)[nH]2)cc1` belongs 0.0236; to `CN1C(=O)C(Cc2c[nH]c3ccccc23)NC1=S` (configuration not stated) [Necrostatin-1], 0.209.

As to `COc1cc2c(NC3CCN(C)CC3)nc(N3CCCN(C)CC3)nc2cc1OCCCN(C)C`, the “S-phase gammaH2AX median (Z-score)” value is 0.175.

Turning to `CCn1c(-c2nonc2N)nc2c(C#CC(C)(C)O)ncc(OC[C@H]3CCCNC3)c21`, the “S-phase gammaH2AX median (Z-score)” value is -0.0151. In the case of `NC(=O)CC[C@H](N)C(=O)O` [L-Glutamine] it was 0.139; in that of `CCN(CC)CCOc1ccc(Nc2ncc3cc(-c4c(Cl)cccc4Cl)c(=O)n(C)c3n2)cc1`, 4.51; in that of `CC(C)OC(=O)C(C)(C)Oc1ccc(C(=O)c2ccc(Cl)cc2)cc1` [Fenofibrate], -0.173. As to `NC(=O)c1cnccn1` [Pyrazinecarboxamide], the “S-phase gammaH2AX median (Z-score)” value is -0.0639. With `Nc1nc(N)c(N=O)c(OCC2CCCCC2)n1`, the “S-phase gammaH2AX median (Z-score)” value came to 0.00967. As to `O=C(CCNNC(=O)c1ccncc1)NCc1ccccc1` [Nialamide], the “S-phase gammaH2AX median (Z-score)” value was 0.0189. To `N/C(=N\C(=O)c1nc(Cl)c(N)nc1N)NCc1ccccc1` [Benzamil hydrochloride] belongs -0.0796; to `CCCn1c(=O)c2[nH]c(C3CCCC3)nc2n(CCC)c1=O` [8-Cyclopentyl-1,3-dipropylxanthine], 0.035; to `Nc1ccc(-c2ccc3ncc4ccc(=O)n(-c5cccc(C(F)(F)F)c5)c4c3c2)cn1` [Torin 2], -0.276.

As to `CCC(=O)c1ccc2c(c1)N(CCCN(C)C)c1ccccc1S2` [Propionylpromazine hydrochloride], the “S-phase gammaH2AX median (Z-score)” value worked out at 0.0828.

In the case of `Cc1nc2ccccn2c(=O)c1CCN1CCC(C(=O)c2ccc(F)cc2)CC1` [Pirenperone], the “S-phase gammaH2AX median (Z-score)” value was found to be 0.102.

Consider `COc1cccc2c1C(=O)c1c(O)c3c(c(O)c1C2=O)C[C@@](O)(C(=O)CO)C[C@@H]3O[C@H]1C[C@H](N)[C@@H](O)[C@H](C)O1` [Epirubicin Hydrochloride], for which the “S-phase gammaH2AX median (Z-score)” value amounted to 0.657. To `CCCN(CCC)CCc1cccc2c1CC(=O)N2` [Ropinirole hydrochloride] belongs 0; to `N=C(N)c1ccc(N)cc1` [4-Aminobenzamidine dihydrochloride], -0.0408. `CC(=O)O[C@H]1C(=O)[C@@]2(C)[C@H]([C@H](OC(=O)c3ccccc3)[C@]3(O)C[C@H](OC(=O)[C@H](O)[C@@H](NC(=O)c4ccccc4)c4ccccc4)C(C)=C1C3(C)C)[C@]1(OC(C)=O)CO[C@@H]1C[C@@H]2O` [Paclitaxel (Taxol)]: the “S-phase gammaH2AX median (Z-score)” value is -0.0584. For `CC(=O)O[C@H]1C(=O)[C@@]2(C)[C@H]([C@H](OC(=O)c3ccccc3)[C@]3(O)C[C@H](OC(=O)[C@H](O)[C@@H](NC(=O)c4ccccc4)c4ccccc4)C(C)=C1C3(C)C)[C@]1(OC(C)=O)CO[C@@H]1C[C@@H]2O` [Taxol], the “S-phase gammaH2AX median (Z-score)” value worked out at 0.567. In the case of `COc1ccccc1N1CCN(CCN(C(=O)c2ccc(I)cc2)c2ccccn2)CC1` [p-MPPI hydrochloride] it was -0.052; in that of `OCCn1cc(-c2cnc3nnn(Cc4ccc5ncccc5c4)c3n2)cn1`, 0.13.

As to `OC1(c2ccc(Cl)cc2)CCN(Cc2c[nH]c3ccccc23)CC1`, the “S-phase gammaH2AX median (Z-score)” value was found to be 0.102. Regarding `Nc1cc(N2CCCCC2)nc(N)[n+]1[O-]` [Minoxidil], the “S-phase gammaH2AX median (Z-score)” value was -0.0568. On to `Nc1ncnc2c1ncn2[C@@H]1O[C@H](COP(=O)(O)OP(=O)(O)OP(=O)(O)OP(=O)(O)OC[C@@H]2O[C@H](n3cnc4c(N)ncnc43)C(O)[C@@H]2O)[C@H](O)C1O` (some centres not stated) [P1,P4-Di(adenosine-5')tetraphosphate triammonium], for which the “S-phase gammaH2AX median (Z-score)” value was found to be 0.29.

For the molecule `COc1ccc2cc([C@H](C)C(=O)O)ccc2c1` [(-)-Naproxen sodium], the “S-phase gammaH2AX median (Z-score)” value was -0.0946.

In the case of `O=c1n(CCCN2CCN(c3cccc(Cl)c3)CC2)nc2ccccn12` [Trazodone hydrochloride], the “S-phase gammaH2AX median (Z-score)” value is -0.34. `CCOc1cc(C(=O)Nc2ccc(Cl)c(-c3nc4ccccc4[nH]3)c2)cc(OCC)c1OCC`: the “S-phase gammaH2AX median (Z-score)” value was -0.0414. In the case of `C=C[C@H]1CN2CC[C@H]1C[C@H]2[C@H](O)c1ccnc2ccc(OC)cc12` [Quinine sulfate] it was 0.0591; in that of `O=C(O)c1ccc2cc(-c3ccc(O)c(C45CC6CC(CC(C6)C4)C5)c3)ccc2c1`, 9.15; in that of `Oc1ccc(-c2nc(-c3ccc(F)cc3)c(-c3ccncc3)[nH]2)cc1`, -0.00388. On to `NS(=O)(=O)c1cc2c(cc1Cl)NC(C1CC3C=CC1C3)NS2(=O)=O` (configuration not stated) [Cyclothiazide], for which the “S-phase gammaH2AX median (Z-score)” value came out at 0.0971. In the case of `S=C(S)N1CCCC1` [Ammonium pyrrolidinedithiocarbamate] it was -0.0851. In the case of `CSC(=N)NCCC[C@H](N)C(=O)O` [S-Methyl-L-thiocitrulline acetate] it was -0.0615.
